According to patent US5087620A, “Controlled dermal penetration enhancement using imidazoles” (Bristol-Myers Squibb Co., priority 1990, dated 1992):

Test: In vitro skin penetration study, excised human skin, Franz diffusion cells (Example 1A-1C)
Type: in vitro ADME
Experimental: The following test method may be employed with human skin to determine topical penetration of pharmacologically active steroids used in the practice of this invention. The procedure is also applicable to pig skin and rat skin. Normal excised human skin samples obtained from breast reduction were used. Appropriate size specimens were frozen on the microtome with carbon dioxide and sectioned to a layer around 200 micrometers thick and stored in normal saline at 5° C. The skin sections were mounted on 9 mm inside diameter flat-top Franz diffusion cells. The diffusional cross-sectional area of the skin was 0.636 cm^2. […] Water at 37.4° C. was circulated throughout the water jacket of the diffusion cell. A 100 microliter sample was withdrawn from the receiver compartment at appropriate intervals and analyzed for drug content by HPLC. The receptor fluid was replenished with normal saline after each withdrawal. All the receptor fluid and replenished fluid were thoroughly degassed before use. The compositions shown below were prepared and tested utilizing the above described test procedure for human skin (in vitro). The results obtained, are shown in FIG. 1 and recorded in Table 1.

penetration through the entire skin thickness (speed): more rapid
SMILES: Clc1ccc(CSC(Cn2ccnc2)c2ccc(Cl)cc2Cl)cc1 (stereo not shown) [SNO3, sulconazole nitrate]
